## Percent effect of library compounds

Amino acid sequences for entries named in this document (tags omitted). Residues count along the entry.
UniProt Q4DA54, 1-478: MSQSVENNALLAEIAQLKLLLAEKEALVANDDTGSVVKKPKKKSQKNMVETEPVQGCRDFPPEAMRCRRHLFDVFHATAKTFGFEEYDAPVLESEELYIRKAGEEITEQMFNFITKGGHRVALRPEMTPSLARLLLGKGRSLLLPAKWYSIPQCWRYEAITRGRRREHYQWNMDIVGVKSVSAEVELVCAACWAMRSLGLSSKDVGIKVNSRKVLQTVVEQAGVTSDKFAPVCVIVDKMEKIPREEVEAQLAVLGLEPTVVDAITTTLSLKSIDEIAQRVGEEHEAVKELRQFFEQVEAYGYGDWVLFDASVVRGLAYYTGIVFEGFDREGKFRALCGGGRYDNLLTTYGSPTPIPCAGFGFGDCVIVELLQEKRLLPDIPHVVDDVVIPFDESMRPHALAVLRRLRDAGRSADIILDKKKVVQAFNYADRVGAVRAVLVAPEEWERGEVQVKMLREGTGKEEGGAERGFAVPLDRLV
UniProt Q8IDJ8, 1-583: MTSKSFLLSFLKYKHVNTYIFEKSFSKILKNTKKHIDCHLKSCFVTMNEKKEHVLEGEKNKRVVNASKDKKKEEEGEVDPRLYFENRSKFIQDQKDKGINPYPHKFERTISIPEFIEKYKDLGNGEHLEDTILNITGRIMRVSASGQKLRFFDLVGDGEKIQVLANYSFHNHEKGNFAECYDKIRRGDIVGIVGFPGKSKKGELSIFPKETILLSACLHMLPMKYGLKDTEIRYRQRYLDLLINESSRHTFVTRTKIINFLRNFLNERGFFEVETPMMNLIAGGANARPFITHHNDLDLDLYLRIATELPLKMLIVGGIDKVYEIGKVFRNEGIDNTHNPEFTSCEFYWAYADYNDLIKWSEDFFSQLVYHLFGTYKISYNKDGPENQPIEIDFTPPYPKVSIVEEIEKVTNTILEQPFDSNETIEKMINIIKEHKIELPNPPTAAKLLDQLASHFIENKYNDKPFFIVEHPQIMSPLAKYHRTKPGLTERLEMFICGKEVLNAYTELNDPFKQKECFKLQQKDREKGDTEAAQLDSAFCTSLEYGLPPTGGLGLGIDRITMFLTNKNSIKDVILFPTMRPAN

A: 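Enzyme assay of histidyl-tRNA synthetase; the read-out is not stated. Target: Histidine-tRNA ligase, Trypanosoma cruzi CL Brener (UniProt Q4DA54). Tested at 30 µM. The record gives no direction; compounds that gave an IC50 in retests scored well above the rest, so higher reads as stronger inhibition. Size under these conditions: about 69,000 compounds, about 31 of them at 50% or above in at least one test.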
B: 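Enzyme assay of the cytosolic lysyl-tRNA synthetase in 384-well plates, read by luminescence. Target: Lysine-tRNA ligase, Plasmodium falciparum 3D7 (UniProt Q8IDJ8). Compounds at 30 µM. Direction is inferred from only a few compounds that gave an IC50; most scored high, so higher reads as stronger inhibition. Size under these conditions: about 69,000 compounds, about 49 of them at 50% or above in at least one test.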

The filed quantity is “Percent Effect” (%). The record does not define 0% and 100%; most values in the screen are far below 50% and negative numbers occur (in some assays of this library far below -100). Compounds were drawn at random from those tested, without regard to their results.

- Cc1cc(C)n(CC2CCN(CC(O)Cn3cccn3)CC2)n1 (configuration not stated) | A: 1.739%; B: 0.01286%
- CCC(CC)CN1CCC2(CCCN(c3ncccn3)C2)C1 (configuration not stated) | A: 1.97%; B: -3.158%
- Cc1ccoc1C(=O)NC1CCN(Cc2ccccc2F)CC1 | A: 0%; B: -2.738%
- Cc1ccc(CC(=O)N2CCCCC2Cn2cccn2)cn1 (configuration not stated) | A: 1.005%; B: -3.316%
- Cc1ccc(Sc2ccc(N3CCC(C(=O)O)CC3)nn2)cc1 | A: 4.39%; B: -3.659%
- CN(C)S(=O)(=O)c1ccc2c(c1)N(Cc1nccn1C)CC2 | A: 8.333%; B: 7.606%
- Cc1ccc2c(c1)[C@@H](CC(=O)N(C)C)CCO2 | A: 12.43%; B: 1.532%
- Cn1cc(C(=O)CC2CCCN2C(=O)c2ccncc2F)cn1 (configuration not stated) | A: -0.8596%; B: -2.576%
- Cc1ccc(-n2nc(C)cc2N)nn1 | A: 7.453%; B: 3.541%
- CCn1nc(C)c2nc(C(C)C)nc(NCCc3ccc(O)cc3)c21 | A: 6.087%; B: 3.836%
- Cc1cc(C)c(CNC(=O)NCC2COCCO2)c(=O)[nH]1 (configuration not stated) | A: 10%; B: 0.0934%
- CCN(CC(=O)NC)C(=O)Cc1nc(-c2ccco2)oc1C | A: 2.905%; B: 6.852%
- COc1ccc(Oc2nccnc2C2CCN(C(C)=O)CC2)cc1 | A: 12.77%; B: 2.482%
- CN1CCN(C2CCN(Cc3noc(-c4ccccc4)n3)CC2)C1=O | A: 11.34%; B: 5.003%
- Cc1ccc2c(c1)CN(C(=O)c1ccncc1)C(CN(C)C)CO2 (configuration not stated) | A: 5.319%; B: 4.374%
- CC(C)(C)C(O)CN1CCN(CCOCC(F)(F)F)CC1 (configuration not stated) | A: -20.51%; B: -1.765%
- O=C(NCCc1c[nH]cn1)c1ccc(S(=O)(=O)NC2CCOC2)cc1 (configuration not stated) | A: 3.004%; B: 1.327%
- COC[C@]1(O)CCN(Cc2ccc(N(C)C)nc2)CC1(C)C | A: 4.878%; B: 1.094%
- COc1ccc(C)cc1CC(=O)Nc1cc(C)n[nH]1 | A: 6.186%; B: 6.695%
- COCc1nc(CN2CC(=O)N(C)c3ccccc3C2=O)no1 | A: 6.383%; B: 5.944%
- O=C(c1c(F)cccc1F)N1CCC[C@@H]1Cn1c(=O)oc2ccccc21 | A: 2.26%; B: -0.03492%
- Cn1ncc2c(NCCC34CCCN3CCC4)nc(C3CCCC3)nc21 | A: 4.132%; B: -2.654%
- CN(CCCNC(=O)c1cccc(OCC(N)=O)c1)CC(F)(F)F | A: 7.027%; B: 1.604%
- CCOCC(=O)NC1(c2nc(C)cs2)CCCC1 | A: 0%; B: -2.759%
- CC(C)(C)CC(=O)Nc1ncn(CC(=O)NCc2ccccc2)n1 | A: 12.64%; B: -1.323%
- Cc1nc(C)n(CC2CCCCN2CCCO)n1 (configuration not stated) | A: -5.155%; B: 2.797%
- CCc1ccc(CN2CCCn3c(nc(Cn4ccnc4)cc3=O)C2)o1 | A: 4.878%; B: 0.448%
- CSc1nsc(SCC(=O)c2cc3c(cc2Cl)NC(=O)C3)n1 | A: 6.098%; B: 12.76%
- CS(=O)(=O)N1C[C@H]2N(c3ncccn3)CCC[C@@]2(C(=O)NCC2CC2)C1 | A: 10.58%; B: 5.768%
- CCn1c(=O)n(CC)c2cc(S(N)(=O)=O)ccc21 | A: 12.87%; B: 2.746%
- O=C(C[C@H]1[C@H]2CN(C(=O)c3cccnc3)C[C@@H]12)Nc1cccnc1 | A: 0%; B: 2.259%
- Cc1cc(NC(=O)NCCOc2ccc(Cl)cn2)no1 | A: -2.128%; B: 4.468%
- CC(=O)N(Cc1noc(C2CC2)n1)C1CCN(CC2CCOCC2)C1 (configuration not stated) | A: 2.312%; B: -2.897%
- O=C(c1cc[nH]n1)N1CCC(c2nccn2Cc2ccncc2)CC1 | A: 0.5025%; B: -2.635%
- Cc1nc(O)cc(CN2C[C@H](NS(=O)(=O)N(C)C)[C@@H](C3CC3)C2)n1 | A: 6.173%; B: 4.342%
- Cc1ccc(C(=O)NCC2CCN(C)c3ccccc32)c(=O)[nH]1 (configuration not stated) | A: 2.618%; B: 4.201%
- N#CC(Sc1nnnn1C1CCOCC1)C1CCCCC1 (configuration not stated) | A: 2.905%; B: 5.317%
- COCC1CCN(C(=O)c2cccc(S(=O)(=O)NCC3(C)COC3)c2)C1 (configuration not stated) | A: 1.695%; B: 10.19%
- CC(C)c1nc(C2CCCN2Cc2ccn(C)c(=O)c2)no1 (configuration not stated) | A: 5.344%; B: 7.572%
- c1nc(CN2CCCC(Cc3ccc(NC4CCCC4)nn3)C2)c[nH]1 (configuration not stated) | A: 6.154%; B: 4.911%

Repeated from the top, 3 entries:

Compound	A	B
Cc1cc(C)n(CC2CCN(CC(O)Cn3cccn3)CC2)n1 (configuration not stated)	1.739	0.01286
CCC(CC)CN1CCC2(CCCN(c3ncccn3)C2)C1 (configuration not stated)	1.97	-3.158
Cc1ccoc1C(=O)NC1CCN(Cc2ccccc2F)CC1	0	-2.738

The values are deposited in ChEMBL (CHEMBL3988442, “University of Dundee, Small-Polar-MMV Screening Library” (2021)).